Results deposited as PubChem BioAssay AID504786 (Drosophila RNAi Screening Center, 2011)
Purpose: 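Fly genes required for HIF-dependent transcription when hypoxia is mimicked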 (primary screen). System: Drosophila S2 cells with a stable HIF luciferase reporter. Reagent: long dsRNA against Drosophila genes, about 0.2 µg dsRNA per well of a 384-well plate. Duration: three days of knock-down, then 20 h of DFO before reading. Challenge: desferrioxamine (DFO) at 100 µM, an iron chelator that mimics hypoxia, for 20 h. Detection: 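Firefly luciferase driven by the mouse ldh-a hypoxia-response element, measured after 20 h of 100 µM DFO; z-scores per plate, higher means more signal lost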. Reading the numbers: z-score: higher = stronger loss of HIF reporter signal.
In all, the deposit lists about 21,000 reagents; below is an unselected part of those with a known target gene and a result. 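Primary screen; positive scores mean lost reporter signal, so the sign may be inverted from the usual convention.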 A plus sign joins genes that one reagent is predicted to hit. Further read-outs or replicates are left out here. No sequences are given here.

| Target gene | dsRNA | z-score, replicate 1 | z-score, replicate 2 |
| --- | --- | --- | --- |
| CG14658 | DRSC12244 | -0.1 | 0.2 |
| nompC | DRSC03581 | -0.3 | 0 |
| RpLP2 | DRSC07539 | 5.1 | 6.2 |
| ATP7 | DRSC19819 | -0.4 | -0.7 |
| Tmx3 | DRSC10471 | 0 | -0.1 |
| CG8568 | DRSC20113 | -0.2 | -0.7 |
| PCNA | DRSC07653 | -0.1 | -0.2 |
| CG8520 | DRSC07206 | -0.4 | -0.6 |
| sax | DRSC07675 | -0.4 | -0.6 |
| CG32037 | DRSC10363 | -0.3 | -0.3 |
| CG10126 | DRSC14191 | -0.1 | 0 |
| CG31528 | DRSC12003 | 0.1 | 0.4 |
| Rop | DRSC08693 | -0.3 | -0.5 |
| AOX3 | DRSC15955 | -0.4 | -0.6 |
| Taz | DRSC07704 | -0.4 | -0.2 |
| IntS11 | DRSC15407 | -0.4 | -0.6 |
| CG5001 | DRSC00673 | -0.4 | -0.4 |
| CG5265 | DRSC15756 | 0.2 | 0.2 |
| Acat1 | DRSC17766 | -0.2 | -0.5 |
| HIPP1 | DRSC11748 | -0.4 | -0.6 |
| Slik | DRSC04471 | -0.2 | 0.1 |
| CG5023 | DRSC15697 | 0.7 | 0 |
| Cpr78Ca | DRSC11651 | -0.2 | -0.1 |
| gol | DRSC04689 | -0.2 | -0.6 |
| CG7530 | DRSC16255 | -0.4 | -0.6 |
| CG31287 | DRSC13138 | -0.2 | -0.3 |
| wls | DRSC10605 | -0.3 | -0.2 |
| Sema1a | DRSC03433 | -0.3 | -0.3 |
| Sec61alpha | DRSC03256 | 3.7 | 2.1 |
| Lim1 | DRSC17752 | -0.3 | -0.4 |
| Lim1 | DRSC18677 | -0.2 | 0.4 |
| CG18787 + CG18789 | DRSC02698 | 0.1 | 2.1 |
| CG32091 | DRSC10141 | -0.3 | -0.7 |
| CG32091 | DRSC10820 | -0.2 | -0.5 |
| CtBP | DRSC16617 | 1.3 | 1.9 |
| CG10927 | DRSC06014 | 3.6 | 3.2 |
| Prosbeta5 | DRSC07517 | 6.2 | 5.2 |
| SNF4Agamma | DRSC13461 | -0.6 | -0.6 |
| SNF4Agamma | DRSC13463 | -0.2 | -0.5 |
| SNF4Agamma | DRSC15879 | 0.7 | -0.3 |
| SNF4Agamma | DRSC16847 | -0.5 | -1.3 |
| FANCI | DRSC06416 | -0.2 | -0.4 |
| CG10725 | DRSC09788 | -0.1 | 0.6 |
| CG8237 | DRSC07119 | -0.4 | -0.5 |
| srw | DRSC08201 | -0.3 | -0.5 |
| Xport-A + Xport-B | DRSC15586 | -0.2 | -0.7 |
| CG8840 | DRSC00713 | -0.3 | 0 |
| crc | DRSC03513 | 2.9 | 1 |
| LS2 | DRSC04340 | -0.3 | -0.4 |
| Drsl5 | DRSC08159 | -0.3 | -0.3 |
| hbt | DRSC02503 | -0.4 | -0.5 |
| Vha36-1 | DRSC07098 | -0.3 | -0.6 |
| fs(2)ltoPP43 | DRSC02067 | -0.4 | -0.5 |
| CysRS | DRSC05948 | -0.3 | -0.5 |
| CG7829 | DRSC16322 | -0.2 | -0.7 |
| Mekk1 | DRSC16302 | 0 | -0.2 |
| Mekk1 | DRSC16303 | -1.1 | -0.7 |
| CG17264 | DRSC00500 | -0.3 | -0.2 |
| CG4770 | DRSC15639 | -0.9 | -0.4 |
| ND-13B | DRSC10643 | 0 | 0.3 |
| CG33639 | DRSC19966 | -0.3 | 0 |
| serp | DRSC11035 | -0.3 | -0.4 |
| serp | DRSC11036 | -0.2 | -0.3 |
| CG1440 | DRSC17915 | -0.2 | -0.6 |
| aru | DRSC00802 | -0.3 | -0.3 |
| Uch-L5R | DRSC19825 | -0.4 | -0.5 |
| CG32971 | DRSC01372 | 0.1 | 1.1 |
| CG6878 | DRSC10737 | -0.5 | -0.4 |
| hoip | DRSC03546 | 9.1 | 6.4 |
| spab | DRSC07112 | -0.4 | -0.4 |
| CG7692 | DRSC10902 | -0.3 | -0.2 |
| CG4611 | DRSC10434 | -0.4 | -1 |
| CG12035 | DRSC08238 | -0.2 | -0.5 |
| Eato | DRSC01891 | -0.1 | -0.8 |
| Eato | DRSC03061 | -0.1 | -0.7 |
| Acsx1R | DRSC14339 | -1.3 | -0.5 |
| GstD10 | DRSC15346 | -0.3 | -0.6 |
| GlcT | DRSC04525 | -0.4 | -1.1 |
| heph | DRSC14082 | -0.2 | 0 |
| heph | DRSC14085 | 0.1 | -0.3 |
| heph | DRSC15436 | -0.4 | -0.9 |
| heph | DRSC16783 | -0.3 | -0.7 |
| f | DRSC19174 | 0 | 0.3 |
| f | DRSC19516 | -0.1 | -0.3 |
| f | DRSC20331 | -0.1 | 0.4 |
| Mrtf | DRSC08263 | 4.1 | 2 |
| Mrtf | DRSC08410 | 1.9 | 0.1 |
| Mrtf | DRSC08411 | 0 | -0.4 |
| FASN3 | DRSC20882 | -0.3 | -0.2 |
| CG8541 | DRSC10989 | 0 | 0 |
| CG16812 | DRSC02519 | -0.4 | -0.7 |
| C1GalTA | DRSC03246 | -0.2 | -0.5 |
| CG14551 | DRSC14894 | -0.3 | -0.6 |
| fkh | DRSC16949 | -0.4 | 0 |
| CG11791 | DRSC14391 | 0.1 | 0.2 |
| CG31368 | DRSC14949 | -0.3 | -0.1 |
| CG31368 | DRSC14951 | -0.4 | -0.7 |
| CG40198 | DRSC21068 | 0 | -0.2 |
| gwl | DRSC16305 | -0.2 | -0.1 |
| mRpS28 | DRSC06939 | 0.3 | -0.2 |
| CG5888 | DRSC01929 | -0.1 | 0.3 |
| ppk10 | DRSC01123 | 0.7 | 0.2 |
| CG12104 | DRSC08254 | -0.3 | -0.4 |
| Ppm1 | DRSC08260 | -0.4 | -0.2 |
| CG8907 | DRSC16453 | -0.2 | -0.4 |
| CG7255 | DRSC10790 | -0.3 | -0.5 |
